Test results: the supplement of paper PMC10849652
The other results are listed elsewhere or left out.

Sequences of proteins named here, by UniProt entry; tags and fusion partners are left off. A change or cut given only in a name is not applied to a line headed by its entry.
UniProt Q96EY8: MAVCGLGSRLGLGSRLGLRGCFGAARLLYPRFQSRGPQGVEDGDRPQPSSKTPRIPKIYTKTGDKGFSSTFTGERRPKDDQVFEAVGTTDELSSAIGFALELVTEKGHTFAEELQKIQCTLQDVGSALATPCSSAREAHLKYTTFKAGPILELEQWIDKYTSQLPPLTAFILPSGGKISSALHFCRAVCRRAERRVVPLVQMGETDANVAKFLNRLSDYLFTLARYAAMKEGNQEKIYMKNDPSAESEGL
UniProt Q96EN8: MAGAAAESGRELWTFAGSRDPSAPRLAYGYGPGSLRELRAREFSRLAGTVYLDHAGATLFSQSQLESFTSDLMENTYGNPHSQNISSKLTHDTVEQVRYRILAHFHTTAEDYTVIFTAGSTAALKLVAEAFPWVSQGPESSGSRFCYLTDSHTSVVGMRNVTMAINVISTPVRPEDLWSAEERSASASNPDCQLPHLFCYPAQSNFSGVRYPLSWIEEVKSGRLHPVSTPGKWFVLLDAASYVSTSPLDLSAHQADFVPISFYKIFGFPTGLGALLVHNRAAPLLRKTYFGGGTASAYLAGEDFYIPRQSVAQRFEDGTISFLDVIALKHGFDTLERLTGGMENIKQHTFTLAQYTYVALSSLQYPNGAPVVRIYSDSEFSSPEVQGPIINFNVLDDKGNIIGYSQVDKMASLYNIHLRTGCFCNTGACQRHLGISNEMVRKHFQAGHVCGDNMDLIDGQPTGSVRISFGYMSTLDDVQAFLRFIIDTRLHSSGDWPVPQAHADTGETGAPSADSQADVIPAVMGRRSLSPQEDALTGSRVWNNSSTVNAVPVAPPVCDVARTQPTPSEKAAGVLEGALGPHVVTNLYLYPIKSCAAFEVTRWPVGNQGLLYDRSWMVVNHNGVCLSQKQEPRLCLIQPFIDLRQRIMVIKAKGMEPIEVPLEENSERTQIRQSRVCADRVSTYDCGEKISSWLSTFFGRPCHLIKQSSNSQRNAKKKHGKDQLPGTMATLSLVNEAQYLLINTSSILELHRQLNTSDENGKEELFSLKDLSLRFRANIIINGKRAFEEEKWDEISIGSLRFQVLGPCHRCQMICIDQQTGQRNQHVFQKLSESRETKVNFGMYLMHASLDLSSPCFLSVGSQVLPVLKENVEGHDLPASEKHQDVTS
UniProt Q99797: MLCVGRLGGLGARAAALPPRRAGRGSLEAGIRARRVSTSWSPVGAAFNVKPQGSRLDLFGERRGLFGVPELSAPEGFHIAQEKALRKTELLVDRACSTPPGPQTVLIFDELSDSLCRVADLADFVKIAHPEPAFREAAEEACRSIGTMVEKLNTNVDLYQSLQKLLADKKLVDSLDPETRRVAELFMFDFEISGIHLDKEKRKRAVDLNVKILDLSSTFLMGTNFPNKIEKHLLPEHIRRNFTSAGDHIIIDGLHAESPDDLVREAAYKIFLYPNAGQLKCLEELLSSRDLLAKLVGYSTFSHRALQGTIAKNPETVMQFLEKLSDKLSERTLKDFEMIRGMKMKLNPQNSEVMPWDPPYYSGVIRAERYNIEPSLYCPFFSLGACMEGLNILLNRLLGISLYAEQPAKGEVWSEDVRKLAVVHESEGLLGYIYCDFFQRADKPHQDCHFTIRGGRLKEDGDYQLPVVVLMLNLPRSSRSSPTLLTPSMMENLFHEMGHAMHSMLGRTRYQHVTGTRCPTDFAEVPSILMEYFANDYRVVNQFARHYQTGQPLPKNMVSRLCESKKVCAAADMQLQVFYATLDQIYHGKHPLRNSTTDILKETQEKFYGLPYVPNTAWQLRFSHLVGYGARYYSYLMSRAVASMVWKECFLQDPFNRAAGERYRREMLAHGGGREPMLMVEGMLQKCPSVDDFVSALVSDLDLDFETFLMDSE
UniProt O95563: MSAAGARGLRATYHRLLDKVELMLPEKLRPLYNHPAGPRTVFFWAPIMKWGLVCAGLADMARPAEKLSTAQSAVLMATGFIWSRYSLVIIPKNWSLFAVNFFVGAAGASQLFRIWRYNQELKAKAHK
UniProt A9UHW6: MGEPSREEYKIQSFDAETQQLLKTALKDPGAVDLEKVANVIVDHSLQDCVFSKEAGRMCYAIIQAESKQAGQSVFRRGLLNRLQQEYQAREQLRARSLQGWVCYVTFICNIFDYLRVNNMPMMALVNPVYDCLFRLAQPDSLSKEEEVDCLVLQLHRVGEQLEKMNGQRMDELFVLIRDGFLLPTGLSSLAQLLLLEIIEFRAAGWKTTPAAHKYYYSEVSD
UniProt Q13724: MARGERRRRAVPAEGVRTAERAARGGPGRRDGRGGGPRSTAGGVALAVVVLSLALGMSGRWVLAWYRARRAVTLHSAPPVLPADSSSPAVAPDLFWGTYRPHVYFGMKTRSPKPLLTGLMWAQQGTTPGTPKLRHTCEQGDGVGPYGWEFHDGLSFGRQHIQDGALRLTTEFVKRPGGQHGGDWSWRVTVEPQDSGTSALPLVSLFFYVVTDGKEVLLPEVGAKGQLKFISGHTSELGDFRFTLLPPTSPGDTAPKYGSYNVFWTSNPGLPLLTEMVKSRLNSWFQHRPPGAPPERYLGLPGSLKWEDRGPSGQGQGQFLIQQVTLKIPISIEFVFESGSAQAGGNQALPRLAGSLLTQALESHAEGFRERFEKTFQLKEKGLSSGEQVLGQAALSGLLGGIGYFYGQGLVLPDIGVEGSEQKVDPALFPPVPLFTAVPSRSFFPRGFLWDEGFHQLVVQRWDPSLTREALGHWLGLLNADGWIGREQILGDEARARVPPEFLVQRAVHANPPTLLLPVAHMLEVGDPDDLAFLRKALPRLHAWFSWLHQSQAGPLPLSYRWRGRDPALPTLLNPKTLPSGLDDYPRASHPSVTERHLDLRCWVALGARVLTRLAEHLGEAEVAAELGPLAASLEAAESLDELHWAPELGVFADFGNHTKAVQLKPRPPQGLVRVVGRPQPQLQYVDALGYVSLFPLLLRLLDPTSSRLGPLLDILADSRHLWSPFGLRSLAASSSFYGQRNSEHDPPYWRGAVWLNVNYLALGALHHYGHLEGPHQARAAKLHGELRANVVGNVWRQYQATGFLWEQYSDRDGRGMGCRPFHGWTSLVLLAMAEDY
UniProt Q8TAP9: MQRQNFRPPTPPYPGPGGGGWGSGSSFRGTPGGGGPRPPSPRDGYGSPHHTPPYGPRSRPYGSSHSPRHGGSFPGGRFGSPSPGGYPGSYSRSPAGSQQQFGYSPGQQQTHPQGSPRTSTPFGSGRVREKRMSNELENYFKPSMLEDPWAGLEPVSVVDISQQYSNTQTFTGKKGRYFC
UniProt P22033: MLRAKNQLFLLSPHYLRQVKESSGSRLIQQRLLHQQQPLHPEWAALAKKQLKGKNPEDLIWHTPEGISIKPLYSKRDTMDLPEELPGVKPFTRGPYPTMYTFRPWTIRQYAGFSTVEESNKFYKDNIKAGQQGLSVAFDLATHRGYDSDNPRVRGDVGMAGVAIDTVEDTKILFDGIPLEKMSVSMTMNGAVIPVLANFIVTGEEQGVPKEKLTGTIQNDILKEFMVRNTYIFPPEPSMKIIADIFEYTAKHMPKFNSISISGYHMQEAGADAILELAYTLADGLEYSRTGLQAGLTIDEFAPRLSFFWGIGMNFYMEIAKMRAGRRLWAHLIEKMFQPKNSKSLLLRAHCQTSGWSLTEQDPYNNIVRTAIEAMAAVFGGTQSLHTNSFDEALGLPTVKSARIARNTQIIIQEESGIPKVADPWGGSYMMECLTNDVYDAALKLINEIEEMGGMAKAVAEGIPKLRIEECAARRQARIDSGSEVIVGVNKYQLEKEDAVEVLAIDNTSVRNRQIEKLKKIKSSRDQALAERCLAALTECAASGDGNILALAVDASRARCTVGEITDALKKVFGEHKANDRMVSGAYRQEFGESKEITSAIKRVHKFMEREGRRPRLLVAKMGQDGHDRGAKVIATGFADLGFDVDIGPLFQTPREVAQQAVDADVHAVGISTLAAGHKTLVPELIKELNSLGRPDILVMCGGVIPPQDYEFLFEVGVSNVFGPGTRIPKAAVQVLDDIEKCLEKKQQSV
UniProt Q9UNW1: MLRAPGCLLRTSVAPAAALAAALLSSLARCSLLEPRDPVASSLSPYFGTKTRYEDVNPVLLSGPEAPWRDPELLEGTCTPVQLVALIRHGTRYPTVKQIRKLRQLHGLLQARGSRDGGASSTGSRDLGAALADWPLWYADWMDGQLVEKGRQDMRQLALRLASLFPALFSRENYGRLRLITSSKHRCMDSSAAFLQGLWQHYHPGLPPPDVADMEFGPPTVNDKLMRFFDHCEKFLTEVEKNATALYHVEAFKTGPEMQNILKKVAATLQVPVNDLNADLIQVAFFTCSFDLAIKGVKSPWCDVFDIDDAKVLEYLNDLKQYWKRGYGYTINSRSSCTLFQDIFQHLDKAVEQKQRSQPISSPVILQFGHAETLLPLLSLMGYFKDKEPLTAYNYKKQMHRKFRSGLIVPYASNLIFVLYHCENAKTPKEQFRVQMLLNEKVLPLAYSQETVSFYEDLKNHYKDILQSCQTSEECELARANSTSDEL
UniProt P29372, whole entry, looked up: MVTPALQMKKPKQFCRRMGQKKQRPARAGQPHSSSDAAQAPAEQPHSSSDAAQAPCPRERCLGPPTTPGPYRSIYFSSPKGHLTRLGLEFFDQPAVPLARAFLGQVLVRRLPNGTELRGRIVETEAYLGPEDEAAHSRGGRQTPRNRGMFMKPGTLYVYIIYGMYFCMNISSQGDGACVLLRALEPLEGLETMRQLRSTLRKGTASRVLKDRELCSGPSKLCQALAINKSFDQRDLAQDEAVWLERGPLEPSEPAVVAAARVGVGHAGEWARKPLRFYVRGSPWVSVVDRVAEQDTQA

Tests used:
Assay in all cases: log2 fold change, soluble protein after heating vs DMSO (PISA); higher = thermal stabilisation; K562 cells, 10 uM, 30 min; active = over 0.2 and 3.5 SD of the protein, either way, in both replicates (recomputed)
[1] = compound: CS(=O)(=O)c1ccc(-c2cnc(N)c(C(=O)Nc3ccccc3)n2)cc1
Procedure, shortened: (§1)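 For each measurement, 10 μM compound was applied for 30 min to K562 cells at 2×10^6 cells/mL. Aliquots were heated for 3 min across 48°C-58°C, pooled, and extracted in PBS with 0.5% NP-40 at 4°C; the supernatant after 21,000xg for 90 min was soluble protein. This was quantified by TMTpro 16plex LC-MS/MS with channel sums equalised, and thermal stability was reported relative to control samples from duplicates, on a log2 fold-change scale.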

crizotinib = compound: C[C@@H](Oc1cc(-c2cnn(C3CCNCC3)c2)cnc1N)c1c(Cl)ccc(F)c1Cl [crizotinib]
Procedure, shortened: as §1

[2] = compound: C[C@@H]1COCCN1C2=NC(=NC(=C2)C3(CC3)S(=O)(=O)C)C4=C5C=CNC5=CC=C4
Procedure, shortened: as §1

[3] = compound: C[C@H](C1=CC=C(C=C1)C(=O)NC2=C3C=CNC3=NC=C2)N
Procedure, shortened: as §1

duvelisib = compound: C[C@H](Nc1ncnc2nc[nH]c12)c1cc2cccc(Cl)c2c(=O)n1-c1ccccc1 [duvelisib]
Procedure, shortened: as §1

gandotinib = compound: Cc1cc(Nc2cc(CN3CCOCC3)c3nc(C)c(Cc4ccc(Cl)cc4F)n3n2)n[nH]1 [gandotinib]
Procedure, shortened: as §1

tozasertib = compound: Cc1cc(Nc2cc(N3CCN(C)CC3)nc(Sc3ccc(NC(=O)C4CC4)cc3)n2)n[nH]1 [tozasertib]
Procedure, shortened: as §1

[4] = compound: Cc1cc(SCc2sc(-c3ccc(C(F)(F)F)cc3)nc2C)ccc1OCC(=O)O
Procedure, shortened: as §1

doramapimod = compound: Cc1ccc(-n2nc(C(C)(C)C)cc2NC(=O)Nc2ccc(OCCN3CCOCC3)c3ccccc23)cc1 [doramapimod]
Procedure, shortened: as §1

ispinesib = compound: Cc1ccc(C(=O)N(CCCN)[C@@H](c2nc3cc(Cl)ccc3c(=O)n2Cc2ccccc2)C(C)C)cc1 [ispinesib]
Procedure, shortened: as §1

bafetinib = compound: Cc1ccc(NC(=O)c2ccc(CN3CC[C@H](N(C)C)C3)c(C(F)(F)F)c2)cc1Nc1nccc(-c2cncnc2)n1 [bafetinib]
Procedure, shortened: as §1

[5] = compound: Cc1cccc(CC(=O)N2CCc3c2ccc(-c2cn(C)c4ncnc(N)c24)c3F)n1
Procedure, shortened: as §1

nilotinib = compound: Cc1cn(-c2cc(NC(=O)c3ccc(C)c(Nc4nccc(-c5cccnc5)n4)c3)cc(C(F)(F)F)c2)cn1 [nilotinib]
Procedure, shortened: as §1

[6] = compound: Cc1nc(Nc2n[nH]c3c2CN(C(=O)N[C@H](CN(C)C)c2ccccc2)C3(C)C)c2sccc2n1
Procedure, shortened: as §1

dasatinib = compound: Cc1nc(Nc2ncc(C(=O)Nc3c(C)cccc3Cl)s2)cc(N2CCN(CCO)CC2)n1 [dasatinib]
Procedure, shortened: as §1

[7] = compound: Cc1ncc(-c2ccnc(Nc3ccc(S(C)(=O)=O)cc3)n2)n1C(C)C
Procedure, shortened: as §1

[8] = compound: Cn1cc(-c2ccc3c(c2)CCN3C(=O)Cc2cccc(C(F)(F)F)c2)c2c(N)ncnc21
Procedure, shortened: as §1

[9] = compound: Cn1cc(-c2ccc3nnc(C(F)(F)c4ccc5ncccc5c4)n3n2)cn1
Procedure, shortened: as §1

tipifarnib = compound: Cn1cncc1[C@@](N)(c1ccc(Cl)cc1)c1ccc2c(c1)c(-c1cccc(Cl)c1)cc(=O)n2C [tipifarnib]
Procedure, shortened: as §1

mubritinib = compound: FC(F)(F)c1ccc(/C=C/c2nc(COc3ccc(CCCCn4ccnn4)cc3)co2)cc1 [mubritinib]
Procedure, shortened: as §1

Measured: log2 fold change

MMAB (UniProt Q96EY8)
inactive: [1] -0.031 | crizotinib 0.013 | [2] 0.034 | [3] -0.036 | duvelisib 0.059 | gandotinib 0.177 | tozasertib -0.051 | [4] -0.026 | doramapimod 0.02 | ispinesib 0.032 | bafetinib -0.047 | [5] -0.041 | nilotinib -0.025 | [6] 0.03 | dasatinib -0.014 | [7] 0.005 | [8] 0.046 | [9] -0.038 | tipifarnib -0.032 | mubritinib -0.024

MOCOS (UniProt Q96EN8)
inactive: [1] -0.004 | crizotinib 0.017 | [2] -0.034 | [3] -0.082 | duvelisib 0.091 | gandotinib 0.015 | tozasertib -0.052 | [4] -0.028 | doramapimod -0.004 | ispinesib -0.057 | bafetinib -0.031 | [5] -0.026 | nilotinib 0.018 | [6] -0.062 | dasatinib -0.029 | [7] -0.017 | [8] 0.034 | [9] 0.049 | tipifarnib 0.013 | mubritinib 0.027

MRPL44 (UniProt Q9H9J2)
inactive: [1] 0.046 | crizotinib 0.038 | [2] -0.183 | [3] 0.249 | duvelisib -0.155 | gandotinib 0.068 | tozasertib 0.009 | [4] 0.053 | doramapimod 0.136 | ispinesib -0.055 | bafetinib 0.185 | [5] 0.064 | nilotinib 0 | [6] 0.201 | dasatinib 0.019 | [7] 0.036 | [8] -0.109 | [9] -0.032 | tipifarnib 0.109 | mubritinib 0.044

MIPEP (UniProt Q99797)
inactive: [1] 0.013 | crizotinib 0.113 | [2] 0.086 | [3] -0.052 | duvelisib 0.023 | gandotinib 0.023 | tozasertib -0.039 | [4] 0.066 | doramapimod -0.024 | ispinesib -0.025 | bafetinib -0.073 | [5] -0.07 | nilotinib -0.051 | [6] -0.005 | dasatinib -0.108 | [7] 0.004 | [8] 0.057 | [9] -0.055 | tipifarnib 0.001 | mubritinib 0.047

MPC2 (UniProt O95563)
inactive: [1] -0.001 | crizotinib 0.021 | [2] 0.029 | [3] -0.047 | duvelisib 0.039 | gandotinib -0.04 | tozasertib -0.056 | [4] -0.035 | doramapimod 0.02 | ispinesib 0.006 | bafetinib -0.03 | [5] -0.004 | nilotinib -0.003 | [6] 0.008 | dasatinib 0.011 | [7] -0.024 | [8] 0.005 | [9] 0.055 | tipifarnib 0.006 | mubritinib 0.035

MRPL40 (UniProt Q9NQ50)
inactive: [1] -0.047 | crizotinib 0.025 | [2] 0.017 | [3] 0.017 | duvelisib -0.02 | gandotinib 0.105 | tozasertib -0.066 | [4] 0.093 | doramapimod 0.054 | ispinesib -0.031 | bafetinib 0.167 | [5] -0.033 | nilotinib 0.017 | [6] 0.151 | dasatinib -0.003 | [7] -0.057 | [8] -0.075 | [9] -0.045 | tipifarnib 0.169 | mubritinib 0.069

MRPL41 (UniProt Q8IXM3)
inactive: [1] 0.007 | crizotinib 0.016 | [2] -0.052 | [3] 0.305 | duvelisib -0.159 | gandotinib 0.228 | tozasertib 0.024 | [4] 0.053 | doramapimod 0.121 | ispinesib -0.144 | bafetinib 0.227 | [5] 0.117 | nilotinib -0.044 | [6] 0.101 | dasatinib 0.004 | [7] -0.042 | [8] -0.214 | [9] -0.013 | tipifarnib 0.092 | mubritinib 0.043

MRPL15 (UniProt Q9P015)
inactive: [1] 0.02 | crizotinib -0.025 | [2] -0.063 | [3] 0.316 | duvelisib -0.099 | gandotinib 0.071 | tozasertib 0.05 | [4] 0.081 | doramapimod 0.083 | ispinesib -0.168 | bafetinib 0.223 | [5] 0.047 | nilotinib -0.062 | [6] 0.14 | dasatinib 0.053 | [7] -0.026 | [8] -0.181 | [9] 0.007 | tipifarnib 0.093 | mubritinib -0.025

MRPL1 (UniProt Q9BYD6)
inactive: [1] -0.01 | crizotinib -0.018 | [2] -0.089 | [3] 0.259 | duvelisib -0.003 | gandotinib 0.043 | tozasertib 0.03 | [4] 0.18 | doramapimod 0.101 | ispinesib 0.127 | bafetinib 0.159 | [5] 0.092 | nilotinib -0.084 | [6] 0.055 | dasatinib -0.017 | [7] -0.004 | [8] -0.122 | [9] -0.045 | tipifarnib 0.095 | mubritinib -0.08

MRPL10 isoform 2 (UniProt Q7Z7H8)
inactive: [1] 0.051 | crizotinib 0.071 | [2] 0.07 | [3] 0.255 | duvelisib -0.055 | gandotinib 0.052 | tozasertib -0.008 | [4] 0.041 | doramapimod 0.104 | ispinesib -0.11 | bafetinib 0.158 | [5] 0.06 | nilotinib -0.021 | [6] 0.141 | dasatinib 0.025 | [7] 0.06 | [8] 0 | [9] 0.012 | tipifarnib 0.053 | mubritinib -0.103

MIF4GD isoform 3 (UniProt A9UHW6)
inactive: [1] 0.055 | crizotinib 0.076 | [2] 0.004 | [3] -0.093 | duvelisib 0.063 | gandotinib 0.067 | tozasertib -0.01 | [4] -0.027 | doramapimod 0.012 | ispinesib 0.083 | bafetinib -0.131 | [5] -0.066 | nilotinib 0.054 | [6] 0.073 | dasatinib 0.069 | [7] -0.048 | [8] 0.079 | [9] 0.005 | tipifarnib -0.068 | mubritinib 0.043

MOGS (UniProt Q13724)
inactive: [1] 0.018 | crizotinib -0.026 | [2] -0.046 | [3] 0.16 | duvelisib 0.023 | gandotinib -0.07 | tozasertib -0.002 | [4] 0.019 | doramapimod 0.063 | ispinesib -0.093 | bafetinib -0.023 | [5] 0.001 | nilotinib -0.045 | [6] 0.036 | dasatinib 0.001 | [7] 0.007 | [8] -0.026 | [9] 0.006 | tipifarnib 0.004 | mubritinib -0.034

Random excerpt: 2 entries already listed.
MRPL10 isoform 2 (UniProt Q7Z7H8)
inactive: [1] 0.051 | crizotinib 0.071 | [2] 0.07 | [3] 0.255 | duvelisib -0.055 | gandotinib 0.052 | tozasertib -0.008 | [4] 0.041 | doramapimod 0.104 | ispinesib -0.11 | bafetinib 0.158 | [5] 0.06 | nilotinib -0.021 | [6] 0.141 | dasatinib 0.025 | [7] 0.06 | [8] 0 | [9] 0.012 | tipifarnib 0.053 | mubritinib -0.103

MIF4GD isoform 3 (UniProt A9UHW6)
inactive: [1] 0.055 | crizotinib 0.076 | [2] 0.004 | [3] -0.093 | duvelisib 0.063 | gandotinib 0.067 | tozasertib -0.01 | [4] -0.027 | doramapimod 0.012 | ispinesib 0.083 | bafetinib -0.131 | [5] -0.066 | nilotinib 0.054 | [6] 0.073 | dasatinib 0.069 | [7] -0.048 | [8] 0.079 | [9] 0.005 | tipifarnib -0.068 | mubritinib 0.043

(next part)

MPLKIP (UniProt Q8TAP9)
inactive: [1] 0.037 | crizotinib 0.107 | [2] -0.065 | [3] 0.097 | duvelisib 0.093 | gandotinib -0.061 | tozasertib -0.015 | [4] 0.066 | doramapimod -0.007 | ispinesib -0.014 | bafetinib 0.006 | [5] -0.071 | nilotinib -0.312 | [6] 0.021 | dasatinib -0.018 | [7] -0.135 | [8] 0.001 | [9] 0.027 | tipifarnib 0.108 | mubritinib -0.063

MMUT (UniProt P22033)
inactive: [1] 0.055 | crizotinib 0.053 | [2] -0.007 | [3] -0.029 | duvelisib 0.035 | gandotinib 0.008 | tozasertib 0.012 | [4] 0.019 | doramapimod -0.002 | ispinesib 0.134 | bafetinib -0.062 | [5] 0.014 | nilotinib -0.007 | [6] -0.022 | dasatinib -0.056 | [7] -0.027 | [8] 0.024 | [9] -0.003 | tipifarnib -0.003 | mubritinib -0.037

MINPP1 (UniProt Q9UNW1)
inactive: [1] 0.013 | crizotinib 0.046 | [2] 0.001 | [3] -0.016 | duvelisib -0.004 | gandotinib -0.094 | tozasertib -0.017 | [4] -0.014 | doramapimod -0.015 | ispinesib 0.038 | bafetinib 0.018 | [5] 0.049 | nilotinib 0.039 | [6] -0.006 | dasatinib 0.053 | [7] 0.013 | [8] -0.044 | [9] 0.01 | tipifarnib -0.065 | mubritinib 0.012

MPG (UniProt P29372)
inactive: [1] -0.014 | crizotinib -0.103 | [2] -0.015 | [3] 0.098 | duvelisib -0.071 | gandotinib -0.015 | tozasertib -0.028 | [4] 0.009 | doramapimod 0.088 | ispinesib -0.028 | bafetinib 0.069 | [5] -0.071 | nilotinib -0.045 | [6] 0.042 | dasatinib 0.015 | [7] 0.022 | [8] 0.03 | [9] -0.014 | tipifarnib 0.008 | mubritinib -0.026
